The results in this text go back to patent US7179650.

Sequences of proteins named here, by UniProt entry; tags and fusion partners are left off. Residues count along the entry.
UniProt P19438, residues 355-455: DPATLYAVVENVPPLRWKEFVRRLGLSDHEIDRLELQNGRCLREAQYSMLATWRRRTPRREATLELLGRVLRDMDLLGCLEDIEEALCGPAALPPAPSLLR
UniProt P63279: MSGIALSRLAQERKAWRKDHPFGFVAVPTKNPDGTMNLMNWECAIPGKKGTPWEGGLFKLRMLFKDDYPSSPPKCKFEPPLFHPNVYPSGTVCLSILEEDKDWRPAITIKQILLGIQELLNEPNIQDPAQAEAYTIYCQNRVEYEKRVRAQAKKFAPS

No constants are given. Whether binding was seen depends on the method and setting. Some entries that bind do so weakly or less than the wild type.

In experiment [1] the target is In vitro translated sentrin-1 (human). Briefly: precipitation on glutathione-Sepharose beads, autoradiography.
For experiment [2] the target is unchanged. Briefly: precipitation on glutathione-Sepharose beads, autoradiography (FIG. 9).
Experiment [3] has as its target TNFR1 wt (death domain construct, yeast two-hybrid) (UniProt P19438). The experiment in a line: yeast two-hybrid.
Experiment [4] shares this target. Briefly: yeast two-hybrid (FIG. 1A).

For “GST-Ubc9 fusion protein (from UniProt P63279 1-158) (enzyme)”, the binding entry in experiment [1] and in experiment [2] was “binds” throughout.

Turning to “Sentrin-1 (SEQ ID NO:2) fused to the Gal4 activation-domain (from UniProt A7WLH8 1-101)”, the binding entry in experiment [3] and in experiment [4] was “binds” throughout.
